Laboratory results from patent publication US12491217B2, “Compositions and methods for promoting healthy neural development in an unborn baby” (The Regents of the University of California, priority 2019, dated 2025).

Assay: Metabolomics of fetal brain at E14.5
Assay type: in vivo, C57Bl/6J mice
Conditions: E14.5 fetal brain metabolite level; for fold of change ABX/SPF: ANOVA contrast ABX vs SPF; for fold of change GF/ABX: ANOVA contrast GF vs ABX; for fold of change GF/SPF: ANOVA contrast GF vs SPF; for fold of change GF/Sp: ANOVA contrast GF vs Sp; for fold of change Sp/ABX: ANOVA contrast Sp vs ABX; for fold of change Sp/SPF: ANOVA contrast Sp vs SPF

In the case of CCCCCC=CCC=CCCCCCCCC(=O)OC(CO)COC(=O)CCCCCCCCCCCCCCC (stereo not drawn) [compound 2413], the “fold of change ABX/SPF” value is reported as 0.84, the “fold of change GF/ABX” value is reported as 0.86 and the “fold of change GF/SPF” value is reported as 0.72. The “fold of change GF/Sp” value was 1.15, the “fold of change Sp/ABX” value was 0.75 and the “fold of change Sp/SPF” value was 0.63.
With CCCCCC=CCC=CCC=CCC=CCCCC(=O)OC(CO)COC(=O)CCCCCCCCCCCCCCC (stereo not drawn) [compound 2419] the “fold of change ABX/SPF” value was 1.04, the “fold of change GF/ABX” value was 0.73 and the “fold of change GF/SPF” value was 0.76. For the same molecule, the “fold of change GF/Sp” value was 0.97, the “fold of change Sp/ABX” value was 0.75 and the “fold of change Sp/SPF” value was 0.78.
For CCCCCC=CCC=CCC=CCC=CCCCC(=O)OC(CO)COC(=O)CCCCCCCCCCCCCCC (stereo not drawn) [compound 2420], the “fold of change ABX/SPF” value was 0.84, the “fold of change GF/ABX” value was 0.91 and the “fold of change GF/SPF” value was 0.76. For the same molecule, the “fold of change GF/Sp” value was 0.97, the “fold of change Sp/ABX” value was 0.93 and the “fold of change Sp/SPF” value was 0.78.
In the case of CCC=CCC=CCC=CCC=CCC=CCC=CCCC(=O)OC(CO)COC(=O)CCCCCCCCCCCCCCC (stereo not drawn) [compound 2422], the “fold of change ABX/SPF” value is reported as 0.96, the “fold of change GF/ABX” value is reported as 0.63 and the “fold of change GF/SPF” value is reported as 0.61. For the same molecule, the “fold of change GF/Sp” value was 0.85, the “fold of change Sp/ABX” value was 0.74 and the “fold of change Sp/SPF” value was 0.71.
For CCC=CCC=CCC=CCC=CCC=CCC=CCCC(=O)OC(CO)COC(=O)CCCCCCCCCCCCCCC (stereo not drawn) [compound 2423], the “fold of change ABX/SPF” value was 0.62, the “fold of change GF/ABX” value was 0.31 and the “fold of change GF/SPF” value was 0.19. The “fold of change GF/Sp” value was 0.47, the “fold of change Sp/ABX” value was 0.66 and the “fold of change Sp/SPF” value was 0.41.
With CCCCCCCCC=CCCCCCCCC(=O)OCC(CO)OC(=O)CCCCCCCC=CCCCCCCCC (stereo not drawn) [compound 2429] the “fold of change ABX/SPF” value was 0.91, the “fold of change GF/ABX” value was 0.90 and the “fold of change GF/SPF” value was 0.82. For the same molecule, the “fold of change GF/Sp” value was 0.97, the “fold of change Sp/ABX” value was 0.93 and the “fold of change Sp/SPF” value was 0.85.
In the case of CCCCCC=CCC=CCCCCCCCC(=O)OC(CO)COC(=O)CCCCCCCC=CCCCCCCCC (stereo not drawn) [compound 2431], the “fold of change ABX/SPF” value is reported as 0.85, the “fold of change GF/ABX” value is reported as 0.83 and the “fold of change GF/SPF” value is reported as 0.71. The “fold of change GF/Sp” value was 1.22, the “fold of change Sp/ABX” value was 0.68 and the “fold of change Sp/SPF” value was 0.58.
With CCCCCC=CCC=CCCCCCCCC(=O)OC(CO)COC(=O)CCCCCCCC=CCCCCCCCC (stereo not drawn) [compound 2432] the “fold of change ABX/SPF” value was 0.96, the “fold of change GF/ABX” value was 0.87 and the “fold of change GF/SPF” value was 0.84. For the same molecule, the “fold of change GF/Sp” value was 1.17, the “fold of change Sp/ABX” value was 0.74 and the “fold of change Sp/SPF” value was 0.72.
With CCCCCC=CCC=CCC=CCC=CCCCC(=O)OC(CO)COC(=O)CCCCCCCC=CCCCCCCCC (stereo not drawn) [compound 2445] the “fold of change ABX/SPF” value was 0.89, the “fold of change GF/ABX” value was 0.88 and the “fold of change GF/SPF” value was 0.78. For the same molecule, the “fold of change GF/Sp” value was 1.02, the “fold of change Sp/ABX” value was 0.86 and the “fold of change Sp/SPF” value was 0.77.
With CCCCCCCCCCCCCCCC(O)C(N)CO (stereo not drawn) [compound 2474] the “fold of change ABX/SPF” value was 0.84, the “fold of change GF/ABX” value was 0.95 and the “fold of change GF/SPF” value was 0.79. For the same molecule, the “fold of change GF/Sp” value was 0.93, the “fold of change Sp/ABX” value was 1.02 and the “fold of change Sp/SPF” value was 0.86.
For CCCCCCCCCCCCCCCC(=O)N[C@@H](CO)[C@H](O)CCCCCCCCCCCCCCC [compound 2480], the “fold of change ABX/SPF” value was 0.83, the “fold of change GF/ABX” value was 0.84 and the “fold of change GF/SPF” value was 0.70. For the same molecule, the “fold of change GF/Sp” value was 0.91, the “fold of change Sp/ABX” value was 0.92 and the “fold of change Sp/SPF” value was 0.77.
With CCCCCCCCCCCCCCCCCC(=O)N[C@@H](CO)[C@H](O)CCCCCCCCCCCCCCC [compound 2481] the “fold of change ABX/SPF” value was 0.79, the “fold of change GF/ABX” value was 0.83 and the “fold of change GF/SPF” value was 0.65. The “fold of change GF/Sp” value was 0.78, the “fold of change Sp/ABX” value was 1.06 and the “fold of change Sp/SPF” value was 0.84.
With CCCCCCCCCCCCC/C=C/[C@@H](O)[C@H](CO)NC(=O)CCCCCCCCCCCCCCC [compound 2488] the “fold of change ABX/SPF” value was 0.83, the “fold of change GF/ABX” value was 0.70 and the “fold of change GF/SPF” value was 0.58. The “fold of change GF/Sp” value was 0.80, the “fold of change Sp/ABX” value was 0.87 and the “fold of change Sp/SPF” value was 0.72.
For CCCCCCCCCCCCC/C=C/[C@@H](O)[C@H](CO)NC(=O)CCCCCCCCCCCCCCCCC [compound 2491], the “fold of change ABX/SPF” value was 0.72, the “fold of change GF/ABX” value was 0.94 and the “fold of change GF/SPF” value was 0.68. The “fold of change GF/Sp” value was 0.86, the “fold of change Sp/ABX” value was 1.09 and the “fold of change Sp/SPF” value was 0.79.
For CCCCCCCCCCCCC/C=C/[C@@H](O)[C@H](CO)NC(=O)CCCCCCCCCCCCCCCCCCC [compound 2493], the “fold of change ABX/SPF” value was 0.72, the “fold of change GF/ABX” value was 0.91 and the “fold of change GF/SPF” value was 0.65. For the same molecule, the “fold of change GF/Sp” value was 0.87, the “fold of change Sp/ABX” value was 1.05 and the “fold of change Sp/SPF” value was 0.75.
In the case of CCCCCCCCCCCCCCCCCC(=O)NC(COC1OC(CO)C(O)C(O)C1O)C(O)CCCCCCCCCCCCCCC (stereo not drawn) [compound 2520], the “fold of change ABX/SPF” value is reported as 0.94, the “fold of change GF/ABX” value is reported as 0.95 and the “fold of change GF/SPF” value is reported as 0.89. The “fold of change GF/Sp” value was 1.03, the “fold of change Sp/ABX” value was 0.92 and the “fold of change Sp/SPF” value was 0.87.
With CCCCCCCCCCCCCC=CC(O)C(COC1OC(CO)C(O)C(O)C1O)NC(=O)CCCCCCCCCCCCCCC (stereo not drawn) [compound 2522] the “fold of change ABX/SPF” value was 1.08, the “fold of change GF/ABX” value was 1.02 and the “fold of change GF/SPF” value was 1.11. For the same molecule, the “fold of change GF/Sp” value was 1.16, the “fold of change Sp/ABX” value was 0.88 and the “fold of change Sp/SPF” value was 0.95.
In the case of CCCCCCCCCCCCCC=CC(O)C(COC1OC(CO)C(O)C(O)C1O)NC(=O)CCCCCCCCCCCCCCCCC (stereo not drawn) [compound 2523], the “fold of change ABX/SPF” value is reported as 0.86, the “fold of change GF/ABX” value is reported as 0.95 and the “fold of change GF/SPF” value is reported as 0.82. For the same molecule, the “fold of change GF/Sp” value was 0.93, the “fold of change Sp/ABX” value was 1.01 and the “fold of change Sp/SPF” value was 0.88.
With CCCCCCCCCCCCCC=CC(O)C(COC1OC(CO)C(O)C(O)C1O)NC(=O)CCCCCCCCCCCCCCCCCCCCC (stereo not drawn) [compound 2525] the “fold of change ABX/SPF” value was 0.88, the “fold of change GF/ABX” value was 1.08 and the “fold of change GF/SPF” value was 0.95. For the same molecule, the “fold of change GF/Sp” value was 1.09, the “fold of change Sp/ABX” value was 0.99 and the “fold of change Sp/SPF” value was 0.87.
For CCCCCCCCCCCCC/C=C/[C@@H](O)[C@H](CO[C@@H]1O[C@H](CO)[C@@H](O[C@@H]2O[C@H](CO)[C@H](O)[C@H](O)[C@H]2O)[C@H](O)[C@H]1O)NC(=O)CCCCCCCCCCCCCCC [compound 2549], the “fold of change ABX/SPF” value was 0.90, the “fold of change GF/ABX” value was 1.35 and the “fold of change GF/SPF” value was 1.22. For the same molecule, the “fold of change GF/Sp” value was 1.25, the “fold of change Sp/ABX” value was 1.08 and the “fold of change Sp/SPF” value was 0.98.
In the case of CCCCCCCCCCCCCCCC(=O)NC(COP(=O)([O-])OCC[N+](C)(C)C)C(O)CCCCCCCCCCCCCCC (stereo not drawn) [compound 2561], the “fold of change ABX/SPF” value is reported as 0.82, the “fold of change GF/ABX” value is reported as 0.99 and the “fold of change GF/SPF” value is reported as 0.82. For the same molecule, the “fold of change GF/Sp” value was 1.01, the “fold of change Sp/ABX” value was 0.98 and the “fold of change Sp/SPF” value was 0.81.
With CCCCCCCCCCCCC/C=C/[C@@H](O)[C@H](COP(=O)([O-])OCC[N+](C)(C)C)NC(=O)CCCCCCCCCCCCCCC [compound 2565] the “fold of change ABX/SPF” value was 0.93, the “fold of change GF/ABX” value was 1.06 and the “fold of change GF/SPF” value was 0.99. For the same molecule, the “fold of change GF/Sp” value was 1.01, the “fold of change Sp/ABX” value was 1.05 and the “fold of change Sp/SPF” value was 0.98.
